Results reported in US20160369115A1, “POLARIZING PLATE COMPOSITION, POLARIZING PLATE PROTECTIVE FILM, POLARIZER, POLARIZING PLATE, LIQUID CRYSTAL DISPLAY DEVICE, AND COMPOUND USED IN THE LIQUID CRYSTAL DISPLAY DEVICE” (FUJIFILM Corporation, priority 2014, published 2016).

How the values were obtained:
[1] = Bleed-out properties in polarizer (haze evaluation); details: haze of polarizing plate; additive in polarizer, added amount 1.0 per 100 parts by mass of polyvinyl alcohol resin
[2] = Evaluation of durability of polarizing plate, additive in polarizer (Example 2); details: added amount 1.0 per 100 parts by mass of polyvinyl alcohol resin, 410 nm
[3] = Evaluation of durability of polarizing plate, additive in adhesive layer (Example 3); details: added amount 10.0 per 100 parts by mass of the polyvinyl alcohol resin, film thickness 5 μm; for Durability of polarizer: amount of change of orthogonal transmittance (%) 60° C., 95%, 500 hours / Durability of polarizer: amount of change of orthogonal transmittance (%) 60° C., 95%, 1,000 hours / Durability of polarizer: amount of change of orthogonal transmittance (%) 80° C., Dry 500 hours / Durability of polarizer: amount of change of orthogonal transmittance (%) 80° C., Dry, 1,000 hours: 410 nm

## COC(=O)Oc1[nH]c(=O)n(CCCS(=O)(=O)[O-])c(=O)c1Cc1ccc(C=O)cc1.[Na+] [Example compound AAC]
[1]
  Bleed out: A (The haze was less than 0.3%.)
[2]
  Durability of polarizer: amount of change of degree of polarization (%) 60° C., 95%, 500 hours: A+ (The amount of change of the degree of polarization before and after the elapse of time was less than 0.05%.)
  Durability of polarizer: amount of change of degree of polarization (%) 60° C., 95%, 1,000 hours: A+ (The amount of change of the degree of polarization before and after the elapse of time was less than 1.0%.)
  Durability of polarizer: amount of change of degree of polarization (%) 80° C., Dry, 500 hours: A+ (The amount of change of the degree of polarization before and after the elapse of time was less than 0.05%.)
  Durability of polarizer: amount of change of degree of polarization (%) 80° C., Dry, 1,000 hours: A+ (The amount of change of the degree of polarization before and after the elapse of time was less than 0.1%.)
  Durability of polarizer: amount of change of orthogonal transmittance (%) 60° C., 95%, 500 hours: A+ (The amount of change of the orthogonal transmittance before and after the elapse of time was less than 0.1%.)
  Durability of polarizer: amount of change of orthogonal transmittance (%) 60° C., 95%, 1,000 hours: A+ (The amount of change of the orthogonal transmittance before and after the elapse of time was less than 0.5%.)
  Durability of polarizer: amount of change of orthogonal transmittance (%) 80° C., Dry 500 hours: A+ (The amount of change of the orthogonal transmittance before and after the elapse of time was less than 0.05%.)
  Durability of polarizer: amount of change of orthogonal transmittance (%) 80° C., Dry, 1,000 hours: A+ (The amount of change of the orthogonal transmittance before and after the elapse of time was less than 0.1%.)
[3]
  Durability of polarizer: amount of change of degree of polarization (%) 60° C., 95%, 500 hours: A+ (The amount of change of the degree of polarization before and after the elapse of time was less than 0.05%.)
  Durability of polarizer: amount of change of degree of polarization (%) 60° C., 95%, 1,000 hours: A+ (The amount of change of the degree of polarization before and after the elapse of time was less than 1.0%.)
  Durability of polarizer: amount of change of degree of polarization (%) 80° C., Dry, 500 hours: A+ (The amount of change of the degree of polarization before and after the elapse of time was less than 0.05%.)
  Durability of polarizer: amount of change of degree of polarization (%) 80° C., Dry, 1,000 hours: A+ (The amount of change of the degree of polarization before and after the elapse of time was less than 0.1%.)
  Durability of polarizer: amount of change of orthogonal transmittance (%) 60° C., 95%, 500 hours: A+ (The amount of change of the orthogonal transmittance before and after the elapse of time was less than 0.1%.)
  Durability of polarizer: amount of change of orthogonal transmittance (%) 60° C., 95%, 1,000 hours: A+ (The amount of change of the orthogonal transmittance before and after the elapse of time was less than 0.5%.)
  Durability of polarizer: amount of change of orthogonal transmittance (%) 80° C., Dry 500 hours: A+ (The amount of change of the orthogonal transmittance before and after the elapse of time was less than 0.05%.)
  Durability of polarizer: amount of change of orthogonal transmittance (%) 80° C., Dry, 1,000 hours: A+ (The amount of change of the orthogonal transmittance before and after the elapse of time was less than 0.1%.)

## O.O.O.O.O.O.O.O=S(=O)([O-])[O-].[Zn+2] [ZnSO4•7H2O, reference compound]
[1]
  Bleed out: A (The haze was less than 0.3%.)
[2]
  Durability of polarizer: amount of change of degree of polarization (%) 60° C., 95%, 500 hours: B (The amount of change of the orthogonal transmittance before and after the elapse of time was equal to or greater than 2.0% and less than 3.0%.)
  Durability of polarizer: amount of change of degree of polarization (%) 60° C., 95%, 1,000 hours: B (The amount of change of the degree of polarization before and after the elapse of time was equal to or greater than 4.0% and less than 6.0%.)
  Durability of polarizer: amount of change of degree of polarization (%) 80° C., Dry, 500 hours: A (The amount of change of the degree of polarization before and after the elapse of time was equal to or greater than 0.05% and less than 1.0%.)
  Durability of polarizer: amount of change of degree of polarization (%) 80° C., Dry, 1,000 hours: A (The amount of change of the degree of polarization before and after the elapse of time was equal to or greater than 0.1% and less than 2.0%.)
  Durability of polarizer: amount of change of orthogonal transmittance (%) 60° C., 95%, 500 hours: B (The amount of change of the orthogonal transmittance before and after the elapse of time was equal to or greater than 0.4% and less than 0.8%.)
  Durability of polarizer: amount of change of orthogonal transmittance (%) 60° C., 95%, 1,000 hours: B (The amount of change of the orthogonal transmittance before and after the elapse of time was equal to or greater than 1.0% and less than 1.6%.)
  Durability of polarizer: amount of change of orthogonal transmittance (%) 80° C., Dry 500 hours: A (The amount of change of the orthogonal transmittance before and after the elapse of time was equal to or greater than 0.05% and less than 0.1%.)
  Durability of polarizer: amount of change of orthogonal transmittance (%) 80° C., Dry, 1,000 hours: A (The amount of change of the orthogonal transmittance before and after the elapse of time was equal to or greater than 0.1% and less than 0.3%.)
[3]
  Durability of polarizer: amount of change of degree of polarization (%) 60° C., 95%, 500 hours: B (The amount of change of the degree of polarization before and after the elapse of time was equal to or greater than 2.0% and less than 3.0%.)
  Durability of polarizer: amount of change of degree of polarization (%) 60° C., 95%, 1,000 hours: B (The amount of change of the degree of polarization before and after the elapse of time was equal to or greater than 4.0% and less than 6.0%.)
  Durability of polarizer: amount of change of degree of polarization (%) 80° C., Dry, 500 hours: A (The amount of change of the degree of polarization before and alter the elapse of time was equal to or greater than 0.05% and less than 1.0%.)
  Durability of polarizer: amount of change of degree of polarization (%) 80° C., Dry, 1,000 hours: A (The amount of change of the degree of polarization before and after the elapse of time was equal to or greater than 0.1% and less than 2.0%.)
  Durability of polarizer: amount of change of orthogonal transmittance (%) 60° C., 95%, 500 hours: B (The amount of change of the orthogonal transmittance before and after the elapse of time was equal to or greater than 0.4% and less than 0.8%.)
  Durability of polarizer: amount of change of orthogonal transmittance (%) 60° C., 95%, 1,000 hours: B (The amount of change of the orthogonal transmittance before and after the elapse of time was equal to or greater than 1.0% and less than 1.6%.)
  Durability of polarizer: amount of change of orthogonal transmittance (%) 80° C., Dry 500 hours: A (The amount of change of the orthogonal transmittance before and after the elapse of time was equal to or greater than 0.05% and less than 0.1%.)
  Durability of polarizer: amount of change of orthogonal transmittance (%) 80° C., Dry, 1,000 hours: A (The amount of change of the orthogonal transmittance before and after the elapse of time was equal to or greater than 0.1% and less than 0.3%.)

## COC(=O)Oc1c(Cc2ccccc2)c(=O)n(CS(=O)(=O)[O-])n1C.[Na+] [Example compound AH]
[1]
  Bleed out: A (The haze was less than 0.3%.)
[2]
  Durability of polarizer: amount of change of degree of polarization (%) 60° C., 95%, 500 hours: A (The amount of change of the orthogonal transmittance before and after the elapse of time was equal to or greater than 0.05% and less than 2.0%.)
  Durability of polarizer: amount of change of degree of polarization (%) 60° C., 95%, 1,000 hours: A+ (The amount of change of the degree of polarization before and after the elapse of time was less than 1.0%.)
  Durability of polarizer: amount of change of degree of polarization (%) 80° C., Dry, 500 hours: A (The amount of change of the degree of polarization before and after the elapse of time was equal to or greater than 0.05% and less than 1.0%.)
  Durability of polarizer: amount of change of degree of polarization (%) 80° C., Dry, 1,000 hours: A+ (The amount of change of the degree of polarization before and after the elapse of time was less than 0.1%.)
  Durability of polarizer: amount of change of orthogonal transmittance (%) 60° C., 95%, 500 hours: A (The amount of change of the orthogonal transmittance before and after the elapse of time was equal to or greater than 0.1% and less than 0.4%.)
  Durability of polarizer: amount of change of orthogonal transmittance (%) 60° C., 95%, 1,000 hours: A+ (The amount of change of the orthogonal transmittance before and after the elapse of time was less than 0.5%.)
  Durability of polarizer: amount of change of orthogonal transmittance (%) 80° C., Dry 500 hours: A (The amount of change of the orthogonal transmittance before and after the elapse of time was equal to or greater than 0.05% and less than 0.1%.)
  Durability of polarizer: amount of change of orthogonal transmittance (%) 80° C., Dry, 1,000 hours: A+ (The amount of change of the orthogonal transmittance before and after the elapse of time was less than 0.1%.)
[3]
  Durability of polarizer: amount of change of degree of polarization (%) 60° C., 95%, 500 hours: A (The amount of change of the degree of polarization before and after the elapse of time was equal to or greater than 0.05% and less than 2.0%.)
  Durability of polarizer: amount of change of degree of polarization (%) 60° C., 95%, 1,000 hours: A+ (The amount of change of the degree of polarization before and after the elapse of time was less than 1.0%.)
  Durability of polarizer: amount of change of degree of polarization (%) 80° C., Dry, 500 hours: A (The amount of change of the degree of polarization before and alter the elapse of time was equal to or greater than 0.05% and less than 1.0%.)
  Durability of polarizer: amount of change of degree of polarization (%) 80° C., Dry, 1,000 hours: A+ (The amount of change of the degree of polarization before and after the elapse of time was less than 0.1%.)
  Durability of polarizer: amount of change of orthogonal transmittance (%) 60° C., 95%, 500 hours: A (The amount of change of the orthogonal transmittance before and after the elapse of time was equal to or greater than 0.1% and less than 0.4%.)
  Durability of polarizer: amount of change of orthogonal transmittance (%) 60° C., 95%, 1,000 hours: A+ (The amount of change of the orthogonal transmittance before and after the elapse of time was less than 0.5%.)
  Durability of polarizer: amount of change of orthogonal transmittance (%) 80° C., Dry 500 hours: A (The amount of change of the orthogonal transmittance before and after the elapse of time was equal to or greater than 0.05% and less than 0.1%.)
  Durability of polarizer: amount of change of orthogonal transmittance (%) 80° C., Dry, 1,000 hours: A+ (The amount of change of the orthogonal transmittance before and after the elapse of time was less than 0.1%.)
